Measurements as given in the supplement of paper PMC10849652.
This is one part of the list.

Amino acid sequences for entries named in this document (tags omitted). A change or cut given only in a name is not applied to a line headed by its entry.
UniProt Q96QZ7: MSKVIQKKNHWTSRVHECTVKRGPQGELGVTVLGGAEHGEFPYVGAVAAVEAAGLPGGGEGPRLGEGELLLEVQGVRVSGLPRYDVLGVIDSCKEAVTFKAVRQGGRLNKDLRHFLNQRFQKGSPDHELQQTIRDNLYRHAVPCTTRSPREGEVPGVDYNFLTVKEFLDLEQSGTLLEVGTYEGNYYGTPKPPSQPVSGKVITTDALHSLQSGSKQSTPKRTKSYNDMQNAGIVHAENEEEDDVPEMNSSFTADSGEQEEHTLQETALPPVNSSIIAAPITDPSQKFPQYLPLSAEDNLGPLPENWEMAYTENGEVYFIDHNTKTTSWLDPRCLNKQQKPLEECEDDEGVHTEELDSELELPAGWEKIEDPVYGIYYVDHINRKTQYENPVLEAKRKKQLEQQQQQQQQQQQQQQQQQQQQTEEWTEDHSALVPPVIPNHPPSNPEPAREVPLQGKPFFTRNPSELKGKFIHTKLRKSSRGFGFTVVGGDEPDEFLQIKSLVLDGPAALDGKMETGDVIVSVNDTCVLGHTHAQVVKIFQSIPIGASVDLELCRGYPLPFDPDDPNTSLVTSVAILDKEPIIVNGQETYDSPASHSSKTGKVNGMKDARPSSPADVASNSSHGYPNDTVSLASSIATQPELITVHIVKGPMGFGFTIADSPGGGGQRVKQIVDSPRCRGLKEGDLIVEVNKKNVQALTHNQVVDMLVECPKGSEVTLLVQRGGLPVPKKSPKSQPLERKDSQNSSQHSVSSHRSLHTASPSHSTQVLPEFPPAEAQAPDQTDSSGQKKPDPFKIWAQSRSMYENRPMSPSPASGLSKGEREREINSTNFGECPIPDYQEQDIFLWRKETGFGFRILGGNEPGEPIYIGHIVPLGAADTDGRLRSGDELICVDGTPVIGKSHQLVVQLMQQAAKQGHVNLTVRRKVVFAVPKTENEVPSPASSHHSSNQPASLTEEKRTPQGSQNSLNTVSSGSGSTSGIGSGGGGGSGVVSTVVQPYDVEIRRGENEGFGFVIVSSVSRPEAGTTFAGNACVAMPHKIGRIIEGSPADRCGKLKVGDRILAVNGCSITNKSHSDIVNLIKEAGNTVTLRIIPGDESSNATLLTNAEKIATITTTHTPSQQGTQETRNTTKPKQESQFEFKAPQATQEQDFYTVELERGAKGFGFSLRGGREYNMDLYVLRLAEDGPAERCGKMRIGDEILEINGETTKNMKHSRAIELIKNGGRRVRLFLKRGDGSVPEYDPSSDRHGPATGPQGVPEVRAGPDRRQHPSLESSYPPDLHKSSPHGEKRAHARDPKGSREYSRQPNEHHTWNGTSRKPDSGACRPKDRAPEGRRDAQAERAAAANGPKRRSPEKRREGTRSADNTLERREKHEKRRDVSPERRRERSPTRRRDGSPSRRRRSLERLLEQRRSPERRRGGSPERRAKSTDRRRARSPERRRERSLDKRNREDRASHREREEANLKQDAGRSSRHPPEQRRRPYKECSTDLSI
UniProt P29966: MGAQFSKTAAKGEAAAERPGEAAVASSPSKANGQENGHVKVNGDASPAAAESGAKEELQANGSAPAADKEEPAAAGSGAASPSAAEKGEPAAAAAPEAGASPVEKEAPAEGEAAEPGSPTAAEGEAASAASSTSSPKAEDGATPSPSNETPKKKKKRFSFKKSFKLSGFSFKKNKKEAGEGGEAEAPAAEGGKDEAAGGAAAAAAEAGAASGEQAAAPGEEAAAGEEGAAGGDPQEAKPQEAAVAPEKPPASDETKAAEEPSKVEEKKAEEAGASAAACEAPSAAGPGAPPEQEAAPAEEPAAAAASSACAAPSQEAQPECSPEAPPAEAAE
UniProt Q8N2S1: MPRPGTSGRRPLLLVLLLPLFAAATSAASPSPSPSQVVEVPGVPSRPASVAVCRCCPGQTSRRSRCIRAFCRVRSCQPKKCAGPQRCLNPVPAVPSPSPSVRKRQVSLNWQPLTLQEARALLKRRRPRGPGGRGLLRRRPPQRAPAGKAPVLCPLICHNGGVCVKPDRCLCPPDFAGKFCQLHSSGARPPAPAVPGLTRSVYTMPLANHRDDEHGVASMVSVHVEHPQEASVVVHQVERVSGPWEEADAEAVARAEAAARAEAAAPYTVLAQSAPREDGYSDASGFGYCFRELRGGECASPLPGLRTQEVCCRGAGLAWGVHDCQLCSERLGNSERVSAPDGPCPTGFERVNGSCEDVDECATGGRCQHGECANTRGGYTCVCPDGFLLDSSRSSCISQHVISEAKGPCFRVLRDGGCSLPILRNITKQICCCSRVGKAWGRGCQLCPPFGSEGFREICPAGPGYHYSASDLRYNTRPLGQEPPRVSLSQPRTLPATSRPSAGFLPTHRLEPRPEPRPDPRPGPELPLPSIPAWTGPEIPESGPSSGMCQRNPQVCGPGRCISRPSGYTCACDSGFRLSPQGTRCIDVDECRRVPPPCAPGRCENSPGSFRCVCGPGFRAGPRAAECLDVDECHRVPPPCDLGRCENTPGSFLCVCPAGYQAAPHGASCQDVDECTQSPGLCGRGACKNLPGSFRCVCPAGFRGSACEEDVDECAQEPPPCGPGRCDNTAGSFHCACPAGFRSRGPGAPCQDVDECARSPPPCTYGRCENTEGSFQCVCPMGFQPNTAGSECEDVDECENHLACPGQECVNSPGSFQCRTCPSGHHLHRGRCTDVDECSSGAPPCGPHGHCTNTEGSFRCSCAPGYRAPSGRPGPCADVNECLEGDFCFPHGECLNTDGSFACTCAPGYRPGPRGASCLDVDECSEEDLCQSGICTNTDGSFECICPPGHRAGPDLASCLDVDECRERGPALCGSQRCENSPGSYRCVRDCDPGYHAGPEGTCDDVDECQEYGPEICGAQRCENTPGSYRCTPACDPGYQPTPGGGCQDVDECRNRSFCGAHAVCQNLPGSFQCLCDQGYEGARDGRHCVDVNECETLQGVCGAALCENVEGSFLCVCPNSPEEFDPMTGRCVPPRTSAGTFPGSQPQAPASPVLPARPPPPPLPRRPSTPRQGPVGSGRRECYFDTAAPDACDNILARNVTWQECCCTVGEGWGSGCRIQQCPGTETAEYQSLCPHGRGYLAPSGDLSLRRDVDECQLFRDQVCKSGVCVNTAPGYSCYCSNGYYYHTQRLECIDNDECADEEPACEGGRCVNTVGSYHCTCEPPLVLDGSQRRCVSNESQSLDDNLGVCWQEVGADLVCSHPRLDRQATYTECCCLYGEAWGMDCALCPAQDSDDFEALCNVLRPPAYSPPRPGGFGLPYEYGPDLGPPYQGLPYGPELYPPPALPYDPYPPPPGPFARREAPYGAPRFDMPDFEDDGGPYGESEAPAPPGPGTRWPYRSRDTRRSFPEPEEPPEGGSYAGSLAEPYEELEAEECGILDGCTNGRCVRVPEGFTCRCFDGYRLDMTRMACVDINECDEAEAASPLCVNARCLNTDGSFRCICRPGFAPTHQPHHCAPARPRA
UniProt Q9Y2U5: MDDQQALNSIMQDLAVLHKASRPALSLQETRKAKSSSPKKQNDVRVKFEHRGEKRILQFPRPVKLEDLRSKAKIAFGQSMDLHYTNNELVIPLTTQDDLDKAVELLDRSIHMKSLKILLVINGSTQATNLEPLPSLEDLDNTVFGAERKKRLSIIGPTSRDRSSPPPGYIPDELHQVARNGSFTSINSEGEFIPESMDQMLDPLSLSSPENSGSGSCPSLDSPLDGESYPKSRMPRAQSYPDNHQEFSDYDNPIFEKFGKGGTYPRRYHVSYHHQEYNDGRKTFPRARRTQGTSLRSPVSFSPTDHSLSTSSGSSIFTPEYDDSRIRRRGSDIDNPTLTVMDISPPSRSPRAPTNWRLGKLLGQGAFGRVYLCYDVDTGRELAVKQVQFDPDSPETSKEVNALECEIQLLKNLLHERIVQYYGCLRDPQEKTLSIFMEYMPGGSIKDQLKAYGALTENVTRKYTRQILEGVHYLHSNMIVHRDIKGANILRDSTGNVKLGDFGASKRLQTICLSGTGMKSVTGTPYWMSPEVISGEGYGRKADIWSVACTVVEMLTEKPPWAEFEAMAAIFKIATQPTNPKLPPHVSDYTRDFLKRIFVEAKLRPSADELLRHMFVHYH
UniProt Q16539, whole entry, looked up: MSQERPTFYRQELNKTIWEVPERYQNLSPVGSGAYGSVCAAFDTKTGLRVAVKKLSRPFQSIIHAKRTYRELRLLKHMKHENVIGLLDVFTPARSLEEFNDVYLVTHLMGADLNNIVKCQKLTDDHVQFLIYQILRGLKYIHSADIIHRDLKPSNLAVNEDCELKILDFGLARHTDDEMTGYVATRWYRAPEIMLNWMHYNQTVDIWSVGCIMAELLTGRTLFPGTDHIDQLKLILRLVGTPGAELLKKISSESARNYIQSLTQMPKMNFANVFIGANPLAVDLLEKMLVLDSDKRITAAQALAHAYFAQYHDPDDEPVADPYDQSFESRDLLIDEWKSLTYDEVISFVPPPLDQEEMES
UniProt Q99759: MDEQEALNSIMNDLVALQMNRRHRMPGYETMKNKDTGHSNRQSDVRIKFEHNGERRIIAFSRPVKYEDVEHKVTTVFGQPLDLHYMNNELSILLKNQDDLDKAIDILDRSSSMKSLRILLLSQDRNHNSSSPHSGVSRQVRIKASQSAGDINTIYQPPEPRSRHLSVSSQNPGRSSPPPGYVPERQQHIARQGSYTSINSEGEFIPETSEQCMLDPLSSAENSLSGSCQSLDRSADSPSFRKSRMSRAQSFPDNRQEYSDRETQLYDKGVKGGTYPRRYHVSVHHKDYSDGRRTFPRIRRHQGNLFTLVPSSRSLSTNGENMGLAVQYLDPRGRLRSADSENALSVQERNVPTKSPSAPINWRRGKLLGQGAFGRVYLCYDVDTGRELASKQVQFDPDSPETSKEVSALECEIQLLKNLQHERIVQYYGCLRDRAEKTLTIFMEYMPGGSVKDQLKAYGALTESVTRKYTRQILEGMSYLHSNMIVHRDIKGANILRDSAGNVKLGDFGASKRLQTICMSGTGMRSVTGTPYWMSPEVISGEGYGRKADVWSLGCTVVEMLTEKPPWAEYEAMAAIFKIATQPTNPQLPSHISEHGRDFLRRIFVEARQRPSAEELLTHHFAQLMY
UniProt P49137, whole entry, looked up: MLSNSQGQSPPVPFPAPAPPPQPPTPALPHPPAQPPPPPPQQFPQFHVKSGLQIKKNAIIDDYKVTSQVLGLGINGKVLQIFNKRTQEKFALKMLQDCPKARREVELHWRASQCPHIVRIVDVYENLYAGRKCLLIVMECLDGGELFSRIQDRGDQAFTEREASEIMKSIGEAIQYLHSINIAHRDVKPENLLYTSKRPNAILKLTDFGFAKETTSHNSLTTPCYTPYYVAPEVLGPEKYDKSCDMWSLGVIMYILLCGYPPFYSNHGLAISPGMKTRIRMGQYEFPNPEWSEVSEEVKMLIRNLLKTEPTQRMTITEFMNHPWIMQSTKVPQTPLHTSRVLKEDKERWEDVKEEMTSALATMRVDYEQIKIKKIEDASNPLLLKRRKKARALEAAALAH
UniProt Q9Y383: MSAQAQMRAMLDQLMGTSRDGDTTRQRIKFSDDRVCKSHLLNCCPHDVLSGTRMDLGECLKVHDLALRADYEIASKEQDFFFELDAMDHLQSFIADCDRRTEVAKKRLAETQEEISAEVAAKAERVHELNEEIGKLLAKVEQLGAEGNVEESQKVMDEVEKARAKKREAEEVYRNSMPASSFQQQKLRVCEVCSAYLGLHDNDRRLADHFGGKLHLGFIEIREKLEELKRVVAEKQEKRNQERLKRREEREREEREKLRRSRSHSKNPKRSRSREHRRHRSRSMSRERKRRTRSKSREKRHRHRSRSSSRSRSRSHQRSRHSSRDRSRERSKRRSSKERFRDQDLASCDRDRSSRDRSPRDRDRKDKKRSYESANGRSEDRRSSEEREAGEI
UniProt Q8IW41: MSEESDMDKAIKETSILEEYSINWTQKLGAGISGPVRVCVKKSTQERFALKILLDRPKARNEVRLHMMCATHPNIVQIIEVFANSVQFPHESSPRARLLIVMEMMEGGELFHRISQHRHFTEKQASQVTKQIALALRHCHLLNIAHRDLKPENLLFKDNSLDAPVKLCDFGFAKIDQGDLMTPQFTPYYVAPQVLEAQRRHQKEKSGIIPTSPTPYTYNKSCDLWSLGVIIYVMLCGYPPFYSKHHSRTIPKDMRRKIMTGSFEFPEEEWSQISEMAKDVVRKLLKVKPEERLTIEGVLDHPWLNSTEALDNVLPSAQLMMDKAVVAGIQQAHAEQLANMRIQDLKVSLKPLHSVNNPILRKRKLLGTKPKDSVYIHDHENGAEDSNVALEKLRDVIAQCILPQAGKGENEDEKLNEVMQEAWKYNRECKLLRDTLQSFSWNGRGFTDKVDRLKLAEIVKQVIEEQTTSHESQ

Experiments:
Assay in all cases: log2 fold change, soluble protein after heating vs DMSO (PISA); higher = thermal stabilisation; K562 cells, 10 uM, 30 min; active = over 0.2 and 3.5 SD of the protein, either way, in both replicates (recomputed)
[1] = compound: CN1CCN(CCOc2cc(OC3CCOCC3)c3c(Nc4c(Cl)ccc5c4OCO5)ncnc3c2)CC1 [saracatinib]
How it was run: (§1)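 Soluble protein was defined as the supernatant after 21,000xg for 90 min. It came from K562 cells at 2×10^6 cells/mL given 10 μM compound for 30 min, heated in aliquots for 3 min across 48°C-58°C, pooled, and extracted in PBS with 0.5% NP-40 at 4°C, and was quantified by TMTpro 16plex LC-MS/MS with equalised channel sums. Thermal stability against control samples, from duplicates, is reported as log2 fold change.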

[2] = compound: CN1CCN(c2nc(C3=C(c4c[nH]c5ccccc45)C(=O)NC3=O)c3ccccc3n2)CC1 [sotrastaurin]
How it was run: as §1

[3] = compound: CN1CCc2c(c3ccccc3n2Cc2ccc(C(=O)NO)cc2)C1 [Tubastatin A]
How it was run: as §1

[4] = compound: CNC(=O)C1=CC=CC=C1NC2=NC(=NC=C2Cl)NC3=C(C=C(C=C3)N4CCOCC4)OC
How it was run: as §1

[5] = compound: CNC(=O)c1ccc(Nc2ncc(C(F)(F)F)c(NCc3nccnc3N(C)S(C)(=O)=O)n2)cc1 [defactinib]
How it was run: as §1

[6] = compound: CNCc1ccc(-c2[nH]c3cc(F)cc4c3c2CCNC4=O)cc1 [rucaparib]
How it was run: as §1

[7] = compound: CNc1nc(-c2ccc3c(N)n[nH]c3c2)cc(N2C[C@@H](C(=O)NC3CCCCC3)CC[C@H]2C)n1
How it was run: as §1

[8] = compound: COC(=O)N[C@@H](C)CNc1nccc(-c2cn(C(C)C)nc2-c2cc(Cl)cc(NS(C)(=O)=O)c2F)n1 [encorafenib]
How it was run: as §1

[9] = compound: COC(=O)[C@H](CCSC)NC(=O)C1=C(C=C(C=C1)NC[C@H](CS)N)C2=CC=CC=C2
How it was run: as §1

[10] = compound: COC1=CC=C(C=C1)CN2C=CC3=C2C=C(C=C3)C(=O)NO
How it was run: as §1

[11] = compound: CON(C)C(=O)N1N=C(c2cc(F)ccc2F)S[C@@]1(CCCN)c1ccccc1 [filanesib]
How it was run: as §1

[12] = compound: CO[C@H]1C[C@@H]2CC[C@@H](C)[C@@](O)(O2)C(=O)C(=O)N2CCCC[C@H]2C(=O)O[C@H]([C@H](C)C[C@@H]2CC[C@H](n3cnnn3)[C@H](OC)C2)CC(=O)[C@H](C)/C=C(\C)[C@@H](O)[C@@H](OC)C(=O)[C@H](C)C[C@H](C)/C=C/C=C/C=C/1C [zotarolimus]
How it was run: as §1

[13] = compound: COc1cc(C(=O)O)ccc1NC(=O)[C@@H]1N[C@@H](CC(C)(C)C)[C@](C#N)(c2ccc(Cl)cc2F)[C@H]1c1cccc(Cl)c1F [idasanutlin]
How it was run: as §1

[14] = compound: COc1cc(Nc2ncc3c(n2)-c2ccc(Cl)cc2C(c2c(F)cccc2OC)=NC3)ccc1C(=O)O [alisertib]
How it was run: as §1

[15] = compound: COc1cc2nc(-c3cc(F)ccc3O)nc(N[C@@H]3CNC[C@H]3C(C)(C)O)c2cc1OC
How it was run: as §1

[16] = compound: COc1cc2ncnc(Nc3ccc(F)c(Cl)c3)c2cc1OCCCN1CCOCC1 [gefitinib]
How it was run: as §1

[17] = compound: COc1cccc2cc(-c3nc([C@H]4CC[C@H](C(=O)O)CC4)n4ncnc(N)c34)[nH]c12
How it was run: as §1

[18] = compound: CS(=O)(=O)CCNCc1ccc(-c2ccc3ncnc(Nc4ccc(OCc5cccc(F)c5)c(Cl)c4)c3c2)o1 [lapatinib]
How it was run: as §1

[19] = compound: CS(=O)(=O)N1CCN(Cc2cc3nc(-c4cccc5[nH]ncc45)nc(N4CCOCC4)c3s2)CC1 [pictilisib]
How it was run: as §1

[20] = compound: CN1CC[C@H](c2c(O)cc(O)c3c(=O)cc(-c4ccccc4Cl)oc23)[C@H](O)C1 [alvocidib]
How it was run: as §1

Measured: log2 fold change

MAGI1 (UniProt Q96QZ7)
inactive: [1] -0.013 | [2] -0.064 | [3] -0.017 | [4] 0.021 | [5] -0.007 | [6] 0.012 | [7] 0.024 | [8] 0.059 | [9] -0.009 | [10] -0.031 | [11] 0.053 | [12] -0.044 | [13] 0.084 | [14] -0.01 | [15] 0.005 | [16] 0.042 | [17] -0.012 | [18] 0.01 | [19] 0.053

MARCKS (UniProt P29966)
inactive: [1] 0.019 | [2] 0.077 | [3] 0.039 | [4] 0.005 | [5] 0.009 | [6] -0.02 | [7] -0.02 | [8] -0.014 | [9] 0.002 | [10] 0.108 | [11] 0.004 | [12] 0.001 | [13] 0.062 | [14] 0.006 | [15] -0.016 | [16] -0.003 | [17] 0.069 | [18] 0.019 | [19] -0.225

LTBP4 (UniProt Q8N2S1)
inactive: [1] 0.064 | [2] 0.08 | [20] 0.063 | [3] 0.113 | [4] 0.112 | [6] 0.046 | [7] -0.034 | [8] -0.004 | [10] 0.099 | [11] 0.027 | [12] -0.002 | [13] 0.161 | [14] -0.07 | [15] 0.003 | [16] 0.145 | [17] 0.114 | [18] 0.055 | [19] 0.054

MAP3K2 (UniProt Q9Y2U5)
inactive: [1] -0.009 | [2] -0.012 | [20] -0.14 | [3] 0.003 | [4] -0.056 | [5] -0.047 | [6] -0.217 | [7] 0.086 | [8] -0.109 | [9] -0.249 | [10] 0.065 | [11] 0.036 | [12] 0.124 | [13] -0.224 | [14] 0.042 | [15] 0.006 | [17] -0.375 | [18] -0.029 | [19] -0.124

MAPK14 (UniProt Q16539)
inactive: [1] 0.261 | [2] 0.001 | [3] 0.074 | [4] 0.546 | [5] -0.137 | [6] -0.02 | [7] -0.03 | [8] 0.684 | [9] -0.055 | [10] 0.024 | [11] -0.055 | [12] 0.059 | [13] -0.361 | [14] -0.014 | [15] 0.014 | [17] 0.303 | [18] -0.002 | [19] -0.05
active: [16] 0.796

MAP3K3 isoform 2 (UniProt Q99759)
inactive: [1] -0.042 | [2] -0.192 | [20] -0.13 | [3] -0.094 | [4] -0.052 | [5] -0.311 | [6] 0.138 | [7] 0.015 | [8] -0.093 | [9] -0.049 | [11] 0.133 | [12] 0.026 | [14] 0.134 | [16] 0.024 | [17] 0.105 | [19] -0.065

Two entries picked at random from the list so far:
MAPK14 (UniProt Q16539)
inactive: [1] 0.261 | [2] 0.001 | [3] 0.074 | [4] 0.546 | [5] -0.137 | [6] -0.02 | [7] -0.03 | [8] 0.684 | [9] -0.055 | [10] 0.024 | [11] -0.055 | [12] 0.059 | [13] -0.361 | [14] -0.014 | [15] 0.014 | [17] 0.303 | [18] -0.002 | [19] -0.05
active: [16] 0.796

MARCKS (UniProt P29966)
inactive: [1] 0.019 | [2] 0.077 | [3] 0.039 | [4] 0.005 | [5] 0.009 | [6] -0.02 | [7] -0.02 | [8] -0.014 | [9] 0.002 | [10] 0.108 | [11] 0.004 | [12] 0.001 | [13] 0.062 | [14] 0.006 | [15] -0.016 | [16] -0.003 | [17] 0.069 | [18] 0.019 | [19] -0.225

(list continues)

MAPKAPK2 (UniProt P49137)
inactive: [1] 0.077 | [2] -0.035 | [3] -0.006 | [4] -0.01 | [5] -0.013 | [6] 0 | [7] -0.022 | [8] 0.139 | [9] 0.023 | [10] 0.066 | [11] -0.06 | [12] -0.012 | [13] -0.054 | [14] -0.03 | [15] 0.118 | [16] 0.11 | [17] 0.01 | [18] -0.025 | [19] 0.023

LUC7L2 (UniProt Q9Y383)
active: [4] -0.304 | [5] -0.267
inactive: [1] 0.022 | [2] -0.01 | [3] 0.007 | [6] -0.077 | [7] -0.047 | [8] 0.065 | [9] 0.03 | [10] 0.05 | [11] 0.121 | [12] 0.113 | [13] 0.093 | [14] -0.032 | [15] -0.048 | [16] -0.052 | [17] 0.008 | [18] 0.04 | [19] 0.095

MAPKAPK5 (UniProt Q8IW41)
inactive: [1] 0.008 | [2] -0.028 | [3] 0.036 | [4] -0.02 | [5] -0.032 | [6] 0.095 | [7] -0.039 | [8] -0.016 | [9] 0 | [10] -0.011 | [11] -0.133 | [12] 0.009 | [13] -0.017 | [14] -0.084 | [15] 0.269 | [16] 0 | [17] -0.038 | [18] 0.078 | [19] 0.134
